Source: PubChem BioAssay AID652243 (Drosophila RNAi Screening Center, 2013)

- Purpose: 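Fly genes required for human androgen receptor driven transcription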 (primary screen)
- Cells: Drosophila S2R+ cells
- Reagent: long dsRNA against Drosophila genes
- Timing: 72 h (48 h, then 24 h hormone)
- Treatment: synthetic androgen R1881 at 10 nM for 24 h
- Detection: 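Firefly light from an androgen-responsive reporter and Renilla control light per well, raw and unnormalised, for each of two replicates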
- Scale: firefly reporter light: higher = more light from androgen-responsive reporter; Renilla control light: higher = more constitutive control signal (cell number, transfection)
- Rule for the call: 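Across duplicate plates, a knock-down whose log firefly/Renilla ratio shifted a set fold down or up from the GFP/LacZ control mean was a hit; the downward cut appears as both 1.5 and 3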
- Meaning of the calls: active = hit: reporter lowered or raised; inactive = no hit
The deposit covers about 24,000 reagents; this is an unselected part of those that have a named target and a result. In the full data, 246 (1%) were called active. 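Plates not normalised; calls are printed but the firefly/Renilla ratio behind them is not deposited; fold cut for lowering reported inconsistently.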 The raw values are shown without normalisation. A plus sign joins genes that one reagent is predicted to hit. The record does not give: the amount of reagent.

no.	gene	dsRNA	firefly reporter light, replicate 1	firefly reporter light, replicate 2	Renilla control light, replicate 1	Renilla control light, replicate 2	outcome
1	Dmtn	DRSC12513	18866	13320	1.09e5	1.32e5	inactive
2	Dmtn	DRSC28385	2.60e5	4.87e5	8.58e5	1.28e6	inactive
3	Actn	DRSC17724	75122	64978	5.62e5	4.22e5	inactive
4	Actn	DRSC25653	5.60e5	5.76e5	1.07e6	9.26e5	inactive
5	Jig	DRSC14974	1.76e5	1.65e5	2.45e6	3.26e6	inactive
6	sesB	DRSC20371	3.10e5	3.34e5	3.34e6	3.19e6	inactive
7	sesB	DRSC29874	1.09e6	1.24e6	1.29e6	1.91e6	inactive
8	CG17059 + Fsn	DRSC26666	2.27e5	2.49e5	6.53e5	8.16e5	inactive
9	Hsp60A	DRSC20254	1.46e5	1.16e5	1.11e6	1.05e6	inactive
10	FLASH	DRSC06872	6.66e5	7.08e5	2.32e6	3.96e6	inactive
11	FLASH	DRSC26747	9.27e5	5.34e5	1.08e6	4.50e5	inactive
12	Polr2J	DRSC02995	2.16e5	2.43e5	2.67e6	2.54e6	inactive
13	Polr2J	DRSC27111	5.29e5	2.21e5	8.03e5	1.38e5	inactive
14	CG12171	DRSC12200	58854	83300	1.68e6	1.35e6	inactive
15	CG12171	DRSC25540	1.36e6	1.49e6	8.96e5	9.58e5	inactive
16	Ufd1	DRSC10607	9.11e5	7.76e5	2.08e6	2.64e6	inactive
17	CG13325	DRSC06362	2.33e6	1.76e6	1.96e6	1.67e6	inactive
18	CG13325	DRSC24773	9.22e5	8.46e5	1.12e6	1.25e6	inactive
19	CG7565	DRSC10881	7.04e5	6.39e5	1.22e6	1.27e6	inactive
20	CG32651	DRSC18941	1.23e6	9.95e5	1.64e6	1.01e6	inactive
21	CG10680	DRSC02093	1.54e5	1.89e5	1.86e6	1.70e6	inactive
22	Rsph9	DRSC01594	1.35e5	1.88e5	4.52e5	7.40e5	inactive
23	Rsph9	DRSC25908	5.00e5	4.02e5	1.33e6	1.13e6	inactive
24	CG33144	DRSC07024	4.41e5	3.22e5	2.51e6	2.17e6	inactive
25	CG33144	DRSC25033	8.46e5	9.46e5	1.18e6	1.18e6	inactive

Part of the list above, reduced to “firefly reporter light, replicate 2”:
Hsp60A [DRSC20254]: 1.16e5
FLASH [DRSC06872]: 7.08e5
FLASH [DRSC26747]: 5.34e5
Polr2J [DRSC02995]: 2.43e5
